Results taken from the supplement of paper PMC10849652.
Some of the results follow.

Protein sequences, listed by entry. Tags and fused reporters are not part of them. Lines headed by an entry give the natural chain unless they say otherwise; changes in a name come on top.
UniProt Q6KC79: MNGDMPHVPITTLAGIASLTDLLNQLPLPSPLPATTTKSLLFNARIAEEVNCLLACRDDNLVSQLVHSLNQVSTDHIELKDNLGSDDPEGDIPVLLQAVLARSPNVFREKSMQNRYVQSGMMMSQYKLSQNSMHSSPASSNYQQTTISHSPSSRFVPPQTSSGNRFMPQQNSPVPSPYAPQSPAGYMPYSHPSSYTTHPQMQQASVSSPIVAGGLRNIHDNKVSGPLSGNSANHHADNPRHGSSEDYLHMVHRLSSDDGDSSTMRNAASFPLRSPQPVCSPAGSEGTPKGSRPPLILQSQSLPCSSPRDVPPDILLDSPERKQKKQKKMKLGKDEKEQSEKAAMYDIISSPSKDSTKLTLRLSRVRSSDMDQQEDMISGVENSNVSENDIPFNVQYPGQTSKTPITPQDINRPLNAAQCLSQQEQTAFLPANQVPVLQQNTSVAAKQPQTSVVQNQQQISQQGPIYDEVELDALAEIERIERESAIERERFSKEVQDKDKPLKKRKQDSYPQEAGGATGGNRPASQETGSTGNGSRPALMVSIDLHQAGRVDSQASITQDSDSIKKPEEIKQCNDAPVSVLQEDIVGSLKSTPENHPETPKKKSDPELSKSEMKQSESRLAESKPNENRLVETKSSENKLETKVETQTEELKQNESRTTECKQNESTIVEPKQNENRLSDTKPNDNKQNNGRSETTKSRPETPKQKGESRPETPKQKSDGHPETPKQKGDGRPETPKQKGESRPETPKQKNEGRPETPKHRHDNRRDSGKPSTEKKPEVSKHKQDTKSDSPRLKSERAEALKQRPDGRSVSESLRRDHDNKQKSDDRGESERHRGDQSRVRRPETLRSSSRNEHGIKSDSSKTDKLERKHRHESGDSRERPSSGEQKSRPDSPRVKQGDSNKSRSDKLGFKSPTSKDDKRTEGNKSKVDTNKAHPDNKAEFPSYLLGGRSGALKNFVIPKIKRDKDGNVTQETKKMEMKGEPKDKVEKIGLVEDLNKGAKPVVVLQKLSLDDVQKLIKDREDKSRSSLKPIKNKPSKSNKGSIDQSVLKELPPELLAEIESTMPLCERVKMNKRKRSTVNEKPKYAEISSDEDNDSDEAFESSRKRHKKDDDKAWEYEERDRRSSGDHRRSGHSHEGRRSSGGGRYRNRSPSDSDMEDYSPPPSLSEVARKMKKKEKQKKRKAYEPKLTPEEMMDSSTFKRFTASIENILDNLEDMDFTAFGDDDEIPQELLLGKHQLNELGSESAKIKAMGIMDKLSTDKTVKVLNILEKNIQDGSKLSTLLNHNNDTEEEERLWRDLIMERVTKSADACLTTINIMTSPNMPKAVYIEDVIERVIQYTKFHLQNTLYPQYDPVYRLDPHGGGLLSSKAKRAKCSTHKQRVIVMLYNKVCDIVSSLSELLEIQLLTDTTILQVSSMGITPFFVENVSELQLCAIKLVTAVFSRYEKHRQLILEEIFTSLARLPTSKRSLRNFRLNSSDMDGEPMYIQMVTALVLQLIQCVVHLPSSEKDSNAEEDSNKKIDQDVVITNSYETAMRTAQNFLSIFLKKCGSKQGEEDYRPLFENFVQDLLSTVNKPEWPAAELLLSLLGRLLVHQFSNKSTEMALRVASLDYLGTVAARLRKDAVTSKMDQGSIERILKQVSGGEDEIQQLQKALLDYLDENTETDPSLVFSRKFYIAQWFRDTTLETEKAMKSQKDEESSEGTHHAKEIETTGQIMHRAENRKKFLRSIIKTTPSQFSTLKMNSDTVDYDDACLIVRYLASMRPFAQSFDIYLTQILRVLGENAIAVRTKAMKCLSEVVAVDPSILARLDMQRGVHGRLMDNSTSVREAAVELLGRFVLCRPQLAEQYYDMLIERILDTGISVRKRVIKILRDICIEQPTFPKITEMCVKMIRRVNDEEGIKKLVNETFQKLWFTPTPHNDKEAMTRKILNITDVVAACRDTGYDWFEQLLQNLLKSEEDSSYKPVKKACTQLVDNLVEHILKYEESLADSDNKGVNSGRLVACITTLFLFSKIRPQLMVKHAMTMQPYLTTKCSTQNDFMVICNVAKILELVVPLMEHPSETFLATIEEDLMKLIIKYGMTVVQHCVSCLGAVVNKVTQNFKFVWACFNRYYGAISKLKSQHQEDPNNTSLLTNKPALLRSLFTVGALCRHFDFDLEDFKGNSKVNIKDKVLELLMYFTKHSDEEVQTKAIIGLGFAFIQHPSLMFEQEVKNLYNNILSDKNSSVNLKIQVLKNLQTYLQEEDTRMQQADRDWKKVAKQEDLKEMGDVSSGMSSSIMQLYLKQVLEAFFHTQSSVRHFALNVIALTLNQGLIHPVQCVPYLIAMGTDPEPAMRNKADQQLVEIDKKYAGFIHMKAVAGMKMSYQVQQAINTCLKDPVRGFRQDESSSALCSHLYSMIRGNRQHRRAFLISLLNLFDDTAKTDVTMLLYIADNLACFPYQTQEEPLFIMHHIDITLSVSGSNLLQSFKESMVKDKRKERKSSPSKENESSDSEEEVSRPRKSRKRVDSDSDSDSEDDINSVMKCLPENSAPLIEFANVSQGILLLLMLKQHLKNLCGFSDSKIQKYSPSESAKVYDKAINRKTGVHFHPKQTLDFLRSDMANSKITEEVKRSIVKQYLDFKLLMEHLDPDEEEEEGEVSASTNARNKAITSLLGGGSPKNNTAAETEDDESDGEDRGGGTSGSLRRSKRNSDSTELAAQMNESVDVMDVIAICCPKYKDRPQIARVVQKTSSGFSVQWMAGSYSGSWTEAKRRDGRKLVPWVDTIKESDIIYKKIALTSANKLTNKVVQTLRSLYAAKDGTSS
UniProt O00746: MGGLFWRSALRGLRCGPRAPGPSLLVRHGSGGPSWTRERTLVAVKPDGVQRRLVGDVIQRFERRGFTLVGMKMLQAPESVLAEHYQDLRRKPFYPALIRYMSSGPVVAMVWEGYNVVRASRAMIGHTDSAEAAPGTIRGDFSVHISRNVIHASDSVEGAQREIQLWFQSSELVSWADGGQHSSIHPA
UniProt Q00653: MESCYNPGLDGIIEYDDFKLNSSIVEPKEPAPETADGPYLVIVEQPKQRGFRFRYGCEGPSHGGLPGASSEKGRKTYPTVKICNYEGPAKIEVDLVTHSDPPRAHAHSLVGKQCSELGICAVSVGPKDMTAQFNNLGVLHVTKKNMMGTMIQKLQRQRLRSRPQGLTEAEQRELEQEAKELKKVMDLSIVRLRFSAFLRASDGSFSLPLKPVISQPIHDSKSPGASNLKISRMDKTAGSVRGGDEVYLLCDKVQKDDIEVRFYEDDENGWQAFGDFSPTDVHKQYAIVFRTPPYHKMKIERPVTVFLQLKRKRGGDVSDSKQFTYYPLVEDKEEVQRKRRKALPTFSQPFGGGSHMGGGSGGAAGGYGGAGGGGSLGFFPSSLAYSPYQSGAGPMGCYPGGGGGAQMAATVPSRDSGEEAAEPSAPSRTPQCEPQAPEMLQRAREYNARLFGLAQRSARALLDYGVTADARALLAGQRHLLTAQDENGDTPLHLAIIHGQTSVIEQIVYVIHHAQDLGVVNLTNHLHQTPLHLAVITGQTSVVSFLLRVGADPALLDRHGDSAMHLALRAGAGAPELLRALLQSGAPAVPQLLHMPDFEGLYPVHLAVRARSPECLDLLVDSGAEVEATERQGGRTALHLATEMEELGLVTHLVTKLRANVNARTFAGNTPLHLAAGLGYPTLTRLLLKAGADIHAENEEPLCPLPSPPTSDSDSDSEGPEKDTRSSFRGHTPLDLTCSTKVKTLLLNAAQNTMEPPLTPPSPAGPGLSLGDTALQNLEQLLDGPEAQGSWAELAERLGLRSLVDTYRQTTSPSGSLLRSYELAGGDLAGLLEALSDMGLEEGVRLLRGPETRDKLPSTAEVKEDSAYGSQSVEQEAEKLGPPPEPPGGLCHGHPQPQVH
UniProt Q14494: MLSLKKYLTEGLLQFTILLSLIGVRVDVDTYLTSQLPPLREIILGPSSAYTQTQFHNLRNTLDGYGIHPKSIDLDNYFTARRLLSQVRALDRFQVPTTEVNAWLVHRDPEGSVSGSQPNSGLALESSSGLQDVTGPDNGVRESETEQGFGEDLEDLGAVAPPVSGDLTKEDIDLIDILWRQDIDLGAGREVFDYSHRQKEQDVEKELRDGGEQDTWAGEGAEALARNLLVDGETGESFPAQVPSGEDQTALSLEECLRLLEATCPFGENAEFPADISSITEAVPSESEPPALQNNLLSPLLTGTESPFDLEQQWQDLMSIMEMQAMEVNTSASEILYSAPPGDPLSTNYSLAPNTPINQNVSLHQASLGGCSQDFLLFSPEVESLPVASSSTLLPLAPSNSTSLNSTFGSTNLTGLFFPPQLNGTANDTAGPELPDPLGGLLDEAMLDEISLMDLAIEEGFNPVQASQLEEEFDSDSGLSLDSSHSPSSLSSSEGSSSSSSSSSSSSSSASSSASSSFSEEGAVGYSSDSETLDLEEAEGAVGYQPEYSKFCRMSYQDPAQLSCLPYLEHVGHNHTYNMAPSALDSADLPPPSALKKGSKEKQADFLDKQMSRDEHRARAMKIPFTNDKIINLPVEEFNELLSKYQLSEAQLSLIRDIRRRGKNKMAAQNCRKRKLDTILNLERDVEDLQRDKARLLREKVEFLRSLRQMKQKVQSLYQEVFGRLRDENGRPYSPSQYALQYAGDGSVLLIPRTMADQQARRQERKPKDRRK
UniProt Q8NEJ9: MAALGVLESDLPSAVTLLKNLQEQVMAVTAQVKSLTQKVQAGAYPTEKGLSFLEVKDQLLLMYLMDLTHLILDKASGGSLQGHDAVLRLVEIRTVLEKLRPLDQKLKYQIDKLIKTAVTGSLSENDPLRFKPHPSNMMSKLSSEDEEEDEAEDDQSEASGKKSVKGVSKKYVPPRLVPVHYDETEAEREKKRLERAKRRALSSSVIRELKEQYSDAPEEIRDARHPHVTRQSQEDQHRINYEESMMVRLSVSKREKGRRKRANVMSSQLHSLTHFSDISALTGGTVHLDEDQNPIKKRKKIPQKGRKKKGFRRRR

Key:
Experiment in all cases: log2 fold change, soluble protein after heating vs DMSO (PISA); higher = thermal stabilisation; K562 cells, 10 uM, 30 min; active = over 0.2 and 3.5 SD of the protein, either way, in both replicates (recomputed)
[1] = compound: NC(=O)c1cnc(N[C@@H]2CCCC[C@@H]2N)nc1Nc1cccc(-n2nccn2)c1
Outline: (§1)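 K562 cells at 2×10^6 cells/mL were exposed to 10 μM compound for 30 min, then aliquots were heated for 3 min across 48°C-58°C, pooled, and extracted in PBS containing 0.5% NP-40 at 4°C. The supernatant after 21,000xg for 90 min was taken as soluble protein and measured by TMTpro 16plex LC-MS/MS with channel sums equalised. Thermal stability is reported relative to control samples, with values from duplicates. Fold changes are given on a log2 scale.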

citarinostat = compound: O=C(CCCCCCNC(=O)c1cnc(N(c2ccccc2)c2ccccc2Cl)nc1)NO [citarinostat]
Outline: as §1

[2] = compound: O=C1NC(=O)C(c2cnc3ccccn23)=C1c1cn2c3c(cc(F)cc13)CN(C(=O)N1CCCCC1)CC2
Outline: as §1

[3] = compound: c1cc(OCCN2CCCCC2)cc(-c2n[nH]c3ccc(-c4nnc[nH]4)cc23)c1
Outline: as §1

entospletinib = compound: c1cn2cc(-c3ccc4cn[nH]c4c3)nc(Nc3ccc(N4CCOCC4)cc3)c2n1 [entospletinib]
Outline: as §1

[4] = compound: NC1(c2ccc(-c3nc4ccn5c(=O)[nH]nc5c4cc3-c3ccccc3)cc2)CCC1
Outline: as §1

vorinostat = compound: O=C(CCCCCCC(=O)Nc1ccccc1)NO [vorinostat]
Outline: as §1

silmitasertib = compound: O=C(O)c1ccc2c(c1)nc(Nc1cccc(Cl)c1)c1ccncc12 [silmitasertib]
Outline: as §1

[5] = compound: NCC(=O)Nc1ccc(-n2nc(C(F)(F)F)cc2-c2ccc3c(ccc4ccccc43)c2)cc1
Outline: as §1

[6] = compound: NC(=O)Nc1cc(-c2cccc(F)c2)sc1C(=O)N[C@H]1CCCNC1
Outline: as §1

entinostat = compound: Nc1ccccc1NC(=O)c1ccc(CNC(=O)OCc2cccnc2)cc1 [entinostat]
Outline: as §1

Measured: log2 fold change

NIPBL (UniProt Q6KC79)
inactive: [1] 0.071 | citarinostat 0.029 | [2] 0.014 | [3] -0.146 | entospletinib 0.057

NME4 (UniProt O00746)
inactive: [4] 0.085 | vorinostat 0.123 | citarinostat 0.107 | silmitasertib 0.041 | [3] 0.129 | entospletinib -0.105

NFKB2 (UniProt Q00653)
inactive: [1] 0.054 | [4] -0.024 | citarinostat 0.044 | silmitasertib 0.071 | [2] -0.069 | [3] -0.104 | entospletinib 0.056

NFE2L1 (UniProt Q14494)
inactive: [5] 0.055 | vorinostat -0.025 | [2] -0.198

NGDN (UniProt Q8NEJ9)
inactive: [6] -0.088 | entinostat -0.077
